Laboratory results: PubChem BioAssay AID720505 (Drosophila RNAi Screening Center, 2013)
Purpose: 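Knock-downs that reduce calcium influx once internal stores are emptied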 (primary screen). Cells: Drosophila S2R+ cells. Reagents: long dsRNA against Drosophila genes. Conditions: thapsigargin (2 µM) in calcium-free buffer to empty internal stores, then 2 mM calcium added back. Measurement: 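Stores emptied by 2 µM thapsigargin without calcium, then 2 mM calcium re-added; fluo-4 fluorescence followed by FLIPR in 384-well plates, per-well averaged endpoint, raw; two screen passes, some wells retested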. Reading the numbers: calcium signal: higher = more calcium entry after store depletion. Active means: 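Knock-downs counted as hits when calcium entry dropped relative to STIM1 positive and Rho1 negative controls present on each plate; roughly 1500 genes called, with reductions of differing size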. Meaning of the calls: active = called as lowering calcium entry; inactive = not called.
The screen tested about 20,000 reagents; shown is an unselected part of those that have a named target and a result. In the full data, about 2,100 (10%) were called active. 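Raw plate signals without normalisation; calls rest on control-based scores that were not deposited; replicate 2 separates called from uncalled poorly.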 Entries without a mark were called inactive. The record does not give: the amount of reagent, the time to read-out.

JIL-1 (JIL-1 kinase) [DRSC11200] | calcium signal, replicate 1 = 65.1 (active); calcium signal, replicate 2 = 99.1
CG5883 [DRSC10552] | calcium signal, replicate 1 = 66 (active); calcium signal, replicate 2 = 95.6
Fer1 (48 related 1) [DRSC12507] | calcium signal, replicate 1 = 98; calcium signal, replicate 2 = 141
Fer1 (48 related 1) [DRSC12555] | calcium signal, replicate 1 = 111; calcium signal, replicate 2 = 180
CG2017 [DRSC12293] | calcium signal, replicate 1 = 120; calcium signal, replicate 2 = 92
SmD1 (Small ribonucleoprotein particle protein SmD1) [DRSC09800] | calcium signal, replicate 1 = 90.8; calcium signal, replicate 2 = 91.5
vir (virilizer) [DRSC04377] | calcium signal, replicate 1 = 73; calcium signal, replicate 2 = 164
Lcp65Aa [DRSC11209] | calcium signal, replicate 1 = 126; calcium signal, replicate 2 = 99.3
CG13983 [DRSC02315] | calcium signal, replicate 1 = 195; calcium signal, replicate 2 = 101
CG33107 [DRSC21898] | calcium signal, replicate 1 = 76.7; calcium signal, replicate 2 = 212
GstD3 (Glutathione S transferase D3) [DRSC15571] | calcium signal, replicate 1 = 107; calcium signal, replicate 2 = 117
CG31760 [DRSC02590] | calcium signal, replicate 1 = 75.7; calcium signal, replicate 2 = 107
LManV (Lysosomal alpha-mannosidase V) [DRSC03223] | calcium signal, replicate 1 = 89.7; calcium signal, replicate 2 = 80.7
CG12464 [DRSC06156] | calcium signal, replicate 1 = 116; calcium signal, replicate 2 = 157
CG7016 [DRSC16174] | calcium signal, replicate 1 = 108; calcium signal, replicate 2 = 88.1
Pgm2a (Phosphoglucomutase 2a) [DRSC07068] | calcium signal, replicate 1 = 155; calcium signal, replicate 2 = 123
CG7130 [DRSC11797] | calcium signal, replicate 1 = 98.9; calcium signal, replicate 2 = 145
ENGase (Endo-beta-N-acetylglucosaminidase) [DRSC19952] | calcium signal, replicate 1 = 155; calcium signal, replicate 2 = 172
ENGase (Endo-beta-N-acetylglucosaminidase) [DRSC19953] | calcium signal, replicate 1 = 100; calcium signal, replicate 2 = 104
